This is one part of the list. Repeats are few or missing, and single values can be far off.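 Imaging used 1,536-well plates; nuclei positive for cleaved PARP by antibody were divided by total DNA-stained nuclei to yield the apoptosis fraction. Doses for screening kept most cells viable, and cell lines differ markedly in resting and induced cleaved-PARP levels.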
Key:
Test in all cases: cleaved PARP positive nuclei fraction relative to DMSO control; melanoma cells; higher = more apoptosis
Conditions in all cases: library dose: low library concentration; 72 h
[1] = tested on: 501Mel
[2] = tested on: A101D
[3] = tested on: A2058
[4] = tested on: C32
[5] = tested on: CBRC008 (line from a melanoma biopsy)
[6] = tested on: CBRC014 (line from a melanoma biopsy)
[7] = tested on: CBRC016 (line from a melanoma biopsy)
[8] = tested on: CBRC017 (line from a melanoma biopsy)
[9] = tested on: COLO792
[10] = tested on: COLO800
[11] = tested on: COLO829
[12] = tested on: G361
[13] = tested on: IPC-298
[14] = tested on: IST-MEL1
[15] = tested on: LB2518-MEL
[16] = tested on: LOXIMVI

Row | SMILES | cleaved PARP positive nuclei fraction [1] [%] | cleaved PARP positive nuclei fraction [2] [%] | cleaved PARP positive nuclei fraction [3] [%] | cleaved PARP positive nuclei fraction [4] [%] | cleaved PARP positive nuclei fraction [5] [%] | cleaved PARP positive nuclei fraction [6] [%] | cleaved PARP positive nuclei fraction [7] [%] | cleaved PARP positive nuclei fraction [8] [%] | cleaved PARP positive nuclei fraction [9] [%] | cleaved PARP positive nuclei fraction [10] [%] | cleaved PARP positive nuclei fraction [11] [%] | cleaved PARP positive nuclei fraction [12] [%] | cleaved PARP positive nuclei fraction [13] [%] | cleaved PARP positive nuclei fraction [14] [%] | cleaved PARP positive nuclei fraction [15] [%] | cleaved PARP positive nuclei fraction [16] [%]
1 | Nc1nc(F)nc2c1ncn2[C@@H]1O[C@H](CO)[C@@H](O)[C@@H]1O [fludarabine] + CC(C)CCN1c2nc(Nc3cc(F)c(O)c(F)c3)ncc2N(C)C(=O)C1C [BID1870] (first compound 0.2 µM, partner dose 0.2 µM) | 1110 | 22.3 | 40.4 | 198 | 102 | 115 | 561 | 75.1 | 20.7 | 61.5 | 75.2 | 167 | 102 | 168 | 70.9 | 78.6
2 | O=C(O)c1ccc2c(c1)nc(Nc1cccc(Cl)c1)c1ccncc12 + COc1cc2ncnc(Nc3ccc(Oc4ccccc4)cc3)c2cc1OC [SrcI1] (first compound 0.4 µM, partner dose 2 µM) | 175 | 439 | 40.1 | 153 | 87.7 | 117 | 30.4 | 319 | 51.9 | 18.5 | 139 | 124 | 35 | 109 | 59.4 | 150
3 | Nc1nc(F)nc2c1ncn2[C@@H]1O[C@H](CO)[C@@H](O)[C@@H]1O [fludarabine] + N#Cc1c(O)c2c(-c3ccc(-c4ccccc4O)cc3)csc2[nH]c1=O [A769662] (first compound 0.2 µM, partner dose 2 µM) | 889 | 45.1 | 64.2 | 40.9 | 154 | 92.8 | 145 | 90.6 | 203 | 50.4 | 62.5 | 108 | 142 | 126 | 72.5 | 81.5
4 | Nc1ccn([C@@H]2O[C@H](CO)[C@@H](O)C2(F)F)c(=O)n1 [gemcitabine] + Oc1cc(-c2nc(-c3ccccc3)[nH]c2-c2ccncc2)ccc1Cl [L779450] (first compound 0.0004 µM, partner dose 0.2 µM) | 108 | 44.3 | 124 | 80.5 | 74 | 134 | 72.1 | 140 | 126 | 98.6 | 115 | 150 | 103 | 166 | 91.8 | 111
5 | CS(=O)(=O)CCNCc1ccc(-c2ccc3ncnc(Nc4ccc(OCc5cccc(F)c5)c(Cl)c4)c3c2)o1 [lapatinib] + COc1cc2ncnc(Nc3ccc(Oc4ccccc4)cc3)c2cc1OC [SrcI1] (first compound 0.8 µM, partner dose 2 µM) | 26.5 | 24.9 | 157 | 67.7 | 140 | 85.5 | 60.2 | 94.9 | 79.8 | 35.4 | 102 | 131 | 76.5 | 74.7 | 24.7 | 159
6 | Cn1c(=O)n(-c2ccc(C(C)(C)C#N)cc2)c2c3cc(-c4cnc5ccccc5c4)ccc3ncc21 + Oc1cc(-c2nc(-c3ccccc3)[nH]c2-c2ccncc2)ccc1Cl [L779450] (first compound 0.004 µM, partner dose 0.2 µM) | 92.6 | 29.8 | 80.1 | 179 | 51.5 | 109 | 34.9 | 108 | 106 | 138 | 82.6 | 161 | 124 | 149 | 99.1 | 400
7 | Cn1c(=O)n(-c2ccc(C(C)(C)C#N)cc2)c2c3cc(-c4cnc5ccccc5c4)ccc3ncc21 + COc1ccc(COc2ccc(Cc3cnc(N)nc3N)cc2OC)cc1 [GW2580] (first compound 0.004 µM, partner dose 1 µM) | 67.1 | 39.2 | 73 | 106 | 65.5 | 114 | 24.6 | 73.4 | 89 | 51.9 | 18.4 | 145 | 120 | 80.8 | 119 | 153
8 | Nc1ccn([C@@H]2O[C@H](CO)[C@@H](O)C2(F)F)c(=O)n1 [gemcitabine] + Cc1cc([N+](=O)[O-])ccc1NS(=O)(=O)c1cc(Cl)ccc1Cl [FH535] (first compound 0.0004 µM, partner dose 1 µM) | 61.4 | 32.8 | 140 | 296 | 355 | 83.2 | 557 | 324 | 83.7 | 96.2 | 71.8 | 77.2 | 149 | 58.4 | 63.1 | 141

— the supplement of paper PMC4604168 (melanoma cell lines)
